{"source": "the supplement of paper PMC6411743", "experiment_in_all_cases": "NP40-soluble protein abundance relative to vehicle (solubility fold change) (ratio); higher = more soluble protein in presence of AMP-PNP", "key": {"[1]": {"target": "T1, UniProt Q96J84 and related entries", "T1 sequence (whole entry)": "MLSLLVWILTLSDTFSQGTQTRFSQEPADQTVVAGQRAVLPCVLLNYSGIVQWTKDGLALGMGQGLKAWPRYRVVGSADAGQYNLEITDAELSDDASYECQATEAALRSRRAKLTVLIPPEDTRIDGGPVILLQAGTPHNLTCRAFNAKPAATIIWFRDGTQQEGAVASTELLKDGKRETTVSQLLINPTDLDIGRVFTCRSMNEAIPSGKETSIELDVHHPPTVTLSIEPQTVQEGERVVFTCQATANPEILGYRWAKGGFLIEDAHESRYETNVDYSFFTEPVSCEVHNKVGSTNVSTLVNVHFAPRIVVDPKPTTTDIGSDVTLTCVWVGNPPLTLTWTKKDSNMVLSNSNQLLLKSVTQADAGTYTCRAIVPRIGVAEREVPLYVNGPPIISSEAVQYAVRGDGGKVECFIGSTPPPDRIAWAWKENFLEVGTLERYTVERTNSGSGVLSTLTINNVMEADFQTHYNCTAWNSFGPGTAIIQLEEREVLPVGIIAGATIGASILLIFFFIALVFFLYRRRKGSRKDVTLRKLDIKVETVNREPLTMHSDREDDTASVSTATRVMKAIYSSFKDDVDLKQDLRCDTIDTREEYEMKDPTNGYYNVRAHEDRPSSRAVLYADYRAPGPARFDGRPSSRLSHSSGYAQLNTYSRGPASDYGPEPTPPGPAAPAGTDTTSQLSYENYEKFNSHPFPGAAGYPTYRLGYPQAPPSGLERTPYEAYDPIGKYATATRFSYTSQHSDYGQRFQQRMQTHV", "outline": "(§1)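 Each value is a fold change relative to the detergent-processed vehicle, calculated per replicate from vsn-normalised intensities. Jurkat crude lysate received eight concentrations (0.1 to 10 mM) for 10 min at room temperature and 3 min at 37 °C, then was solubilised in 0.8% NP40 with benzonase (60 min, 4 °C). The ultracentrifuged supernatant was TMT-labelled and run by LC-MS/MS in three independent experiments.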"}, "[2]": {"target": "T2, UniProt Q96JY6 and related entries", "T2 sequence (whole entry)": "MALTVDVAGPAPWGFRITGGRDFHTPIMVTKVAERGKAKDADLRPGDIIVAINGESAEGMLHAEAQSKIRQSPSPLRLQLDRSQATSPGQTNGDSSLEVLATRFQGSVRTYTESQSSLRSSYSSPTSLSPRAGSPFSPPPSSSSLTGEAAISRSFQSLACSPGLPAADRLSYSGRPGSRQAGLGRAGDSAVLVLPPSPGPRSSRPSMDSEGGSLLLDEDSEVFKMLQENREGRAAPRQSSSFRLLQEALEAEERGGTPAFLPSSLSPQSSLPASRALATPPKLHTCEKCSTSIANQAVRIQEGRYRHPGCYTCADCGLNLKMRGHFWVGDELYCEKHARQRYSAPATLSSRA", "outline": "as §1"}, "[3]": {"target": "T3, UniProt Q96L50", "T3 sequence (whole entry)": "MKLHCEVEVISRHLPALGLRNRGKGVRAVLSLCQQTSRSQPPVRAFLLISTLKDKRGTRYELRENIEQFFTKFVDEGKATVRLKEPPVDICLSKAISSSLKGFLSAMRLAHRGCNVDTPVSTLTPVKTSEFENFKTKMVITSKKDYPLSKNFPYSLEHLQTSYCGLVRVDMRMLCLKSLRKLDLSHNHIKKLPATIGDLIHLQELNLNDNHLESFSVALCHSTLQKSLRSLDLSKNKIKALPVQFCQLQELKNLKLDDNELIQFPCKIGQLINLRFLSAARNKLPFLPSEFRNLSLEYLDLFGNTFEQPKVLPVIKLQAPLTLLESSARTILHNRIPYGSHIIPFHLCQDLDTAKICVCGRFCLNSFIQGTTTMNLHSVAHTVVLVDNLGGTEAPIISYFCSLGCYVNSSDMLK", "outline": "as §1"}, "[4]": {"target": "T4, UniProt Q96QD9 and related entries", "T4 sequence (whole entry)": "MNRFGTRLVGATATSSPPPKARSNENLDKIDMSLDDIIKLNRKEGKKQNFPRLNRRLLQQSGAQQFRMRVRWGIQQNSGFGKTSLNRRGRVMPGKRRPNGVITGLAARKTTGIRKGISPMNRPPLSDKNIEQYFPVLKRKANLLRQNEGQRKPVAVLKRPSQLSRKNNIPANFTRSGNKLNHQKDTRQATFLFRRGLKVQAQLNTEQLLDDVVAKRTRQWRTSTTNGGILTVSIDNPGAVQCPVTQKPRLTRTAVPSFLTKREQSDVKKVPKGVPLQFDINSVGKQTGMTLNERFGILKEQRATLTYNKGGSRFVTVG", "outline": "as §1"}, "[5]": {"target": "T5, UniProt Q96QG7 and related entries", "T5 sequence (whole entry)": "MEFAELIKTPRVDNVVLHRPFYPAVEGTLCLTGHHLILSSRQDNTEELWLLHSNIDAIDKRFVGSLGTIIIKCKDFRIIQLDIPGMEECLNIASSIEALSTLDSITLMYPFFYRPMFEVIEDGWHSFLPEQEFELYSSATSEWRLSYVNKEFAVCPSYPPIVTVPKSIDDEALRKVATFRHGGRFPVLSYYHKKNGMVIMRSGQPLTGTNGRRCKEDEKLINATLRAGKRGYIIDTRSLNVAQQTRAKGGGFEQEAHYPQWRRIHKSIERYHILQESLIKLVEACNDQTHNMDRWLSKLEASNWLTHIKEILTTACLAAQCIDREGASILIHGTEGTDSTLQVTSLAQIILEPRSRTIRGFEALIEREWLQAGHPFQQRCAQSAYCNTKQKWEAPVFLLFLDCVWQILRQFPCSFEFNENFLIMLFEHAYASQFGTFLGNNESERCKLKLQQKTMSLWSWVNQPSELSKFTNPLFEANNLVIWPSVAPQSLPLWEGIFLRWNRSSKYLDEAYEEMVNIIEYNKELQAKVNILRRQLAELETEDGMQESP", "outline": "as §1"}}, "note": "± gives the standard deviation of the averaged measurements. The list shows a part of the results, in another mix than the full data.", "data": [{"smiles": "Nc1ncnc2c1ncn2[C@@H]1O[C@H](COP(=O)(O)OP(=O)(O)NP(=O)(O)O)[C@@H](O)[C@H]1O", "note": "[adenylyl imidodiphosphate]", "values": [{"measurement": "NP40-soluble protein abundance", "setting": "[1]; concentration: 1mM", "value": "1.02 ± 0.045"}, {"measurement": "NP40-soluble protein abundance", "setting": "[1]; concentration: 2mM", "value": "1.01 ± 0.04"}, {"measurement": "NP40-soluble protein abundance", "setting": "[1]; concentration: 4mM", "value": "1.01 ± 0.03"}, {"measurement": "NP40-soluble protein abundance", "setting": "[1]; concentration: 6mM", "value": "1.03 ± 0.046"}, {"measurement": "NP40-soluble protein abundance", "setting": "[1]; concentration: 8mM", "value": "1.02 ± 0.026"}, {"measurement": "NP40-soluble protein abundance", "setting": "[1]; concentration: 10mM", "value": "1.01 ± 0.026"}, {"measurement": "NP40-soluble protein abundance", "setting": "[2]; concentration: 1mM", "value": "1.01 ± 0.021"}, {"measurement": "NP40-soluble protein abundance", "setting": "[2]; concentration: 2mM", "value": "1.06 ± 0.031"}, {"measurement": "NP40-soluble protein abundance", "setting": "[2]; concentration: 4mM", "value": "1.04 ± 0.0067"}, {"measurement": "NP40-soluble protein abundance", "setting": "[2]; concentration: 6mM", "value": "1 ± 0.013"}, {"measurement": "NP40-soluble protein abundance", "setting": "[2]; concentration: 8mM", "value": "0.994 ± 0.023"}, {"measurement": "NP40-soluble protein abundance", "setting": "[2]; concentration: 10mM", "value": "0.994 ± 0.028"}, {"measurement": "NP40-soluble protein abundance", "setting": "[3]; concentration: 1mM", "value": "0.975 ± 0.042"}, {"measurement": "NP40-soluble protein abundance", "setting": "[3]; concentration: 2mM", "value": "0.926 ± 0.017"}, {"measurement": "NP40-soluble protein abundance", "setting": "[3]; concentration: 4mM", "value": "0.97 ± 0.042"}, {"measurement": "NP40-soluble protein abundance", "setting": "[3]; concentration: 6mM", "value": "1.02 ± 0.034"}, {"measurement": "NP40-soluble protein abundance", "setting": "[3]; concentration: 8mM", "value": "0.993 ± 0.06"}, {"measurement": "NP40-soluble protein abundance", "setting": "[3]; concentration: 10mM", "value": "0.981 ± 0.049"}, {"measurement": "NP40-soluble protein abundance", "setting": "[4]; concentration: 1mM", "value": "0.9791 ± 0.0066"}, {"measurement": "NP40-soluble protein abundance", "setting": "[4]; concentration: 2mM", "value": "1.03 ± 0.0042"}, {"measurement": "NP40-soluble protein abundance", "setting": "[4]; concentration: 4mM", "value": "1.05 ± 0.047"}, {"measurement": "NP40-soluble protein abundance", "setting": "[4]; concentration: 6mM", "value": "1.07 ± 0.1"}, {"measurement": "NP40-soluble protein abundance", "setting": "[4]; concentration: 8mM", "value": "1.08 ± 0.075"}, {"measurement": "NP40-soluble protein abundance", "setting": "[4]; concentration: 10mM", "value": "1.12 ± 0.048"}, {"measurement": "NP40-soluble protein abundance", "setting": "[5]; concentration: 1mM", "value": "0.955 ± 0.01"}, {"measurement": "NP40-soluble protein abundance", "setting": "[5]; concentration: 2mM", "value": "0.92 ± 0.029"}, {"measurement": "NP40-soluble protein abundance", "setting": "[5]; concentration: 4mM", "value": "0.929 ± 0.0085"}, {"measurement": "NP40-soluble protein abundance", "setting": "[5]; concentration: 6mM", "value": "0.94 ± 0.012"}, {"measurement": "NP40-soluble protein abundance", "setting": "[5]; concentration: 8mM", "value": "0.957 ± 0.027"}, {"measurement": "NP40-soluble protein abundance", "setting": "[5]; concentration: 10mM", "value": "0.9176 ± 0.0091"}]}]}
